Source: patent US20040234981A1, “Method of determining dna base sequence” (priority 2001, published 2004)
“Also recorded” adds a separate entry of the source.

System: pBluescriptII DNA
Test: Transcriptional sequencing with mutant enzyme, gel images and base calls (ABI 377 XL)
Format: biochemical
Settings: 50 units enzyme, 60 min, 37° C, FIG. 4
Experimental: The reaction conditions conformed to the method described by Sasaki et al. (Sasaki, N., et al., Gene, 222 (1): 17-24 (1998)). That is, employing plasmid pBluescriptII DNA having a promoter for T7RNA polymerase as template, an in vitro transcription reaction was conducted for 60 min while maintaining 37° C. The unreacted dye terminator remaining in the reaction product following the reaction was removed, and analysis was conducted with an ABI PRISM 377XL DNA sequencer. […] However, when T7 RNA polymerase F644Y/Δ2 was employed, individual sharp RNA separation images were obtained for the transcription products and there was little noise. […]
The transcriptional sequencing reaction was conducted in accordance with the method of Sasaki et al. (Sasaki, N., et al. Gene, 222(1): 17-24 (1998)). […] The dried product was dissolved in 6 μL of formamide/EDTA/Bluedextran loading buffer according to Version 1.0 of the instruction manual of an ABI Prism 377XL DNA Sequencer made by Perkins Elmer Japan, Ltd. and 2 μL thereof were analyzed by the ABI Prism 377XL DNA Sequencer. […] Since noise was low in base sequence analysis, this property made it possible to anticipate that the length of bases that it would be possible to read in a single reaction with an accurate base call would increase. […]

| Molecule | Noise in separation of RNA fragments (gel image) |
| --- | --- |
| T7 RNA polymerase F644Y: mutant T7 RNA polymerase, tyrosine substituted for phenylalanine at residue 644; plasmid pT7RF644Y | high level of noise; also recorded: the noise level was high |
| T7 RNA polymerase F644Y/Δ2: T7 RNA polymerase F644Y deficient in amino acids 172 and 173 and 178 through 180; plasmid pT7RF644Y/Δ2 (protein, UniProt P00573 1-883, looked up, variant F644Y del172-173 del178-180) T7 RNA polymerase: MNTINIAKNDFSDIELAAIPFNTLADHYGERLAREQLALEHESYEMGEARFRKMFERQLKAGEVADNAAAKPLITTLLPKMIARINDWFEEVKAKRGKRPTAFQFLQEIKPEAVAYITIKTTLACLTSADNTTVQAVASAIGRAIEDEARFGRIRDLEAKHFKKNVEEQLNVGHVAFMQVVEADMLSKGLLGGEAWSSWHKEDSIHVGVRCIEMLIESTGMVSLHRQNAGVVGQDSETIELAPEYAEAIATRAGALAGISPMFQPCVVPPKPWTGITGGGYWANGRRPLALVRTHSKKALMRYEDVYMPEVYKAINIAQNTAWKINKKVLAVANVITKWKHCPVEDIPAIEREELPMKPEDIDMNPEALTAWKRAAAAVYRKDKARKSRRISLEFMLEQANKFANHKAIWFPYNMDWRGRVYAVSMFNPQGNDMTKGLLTLAKGKPIGKEGYYWLKIHGANCAGVDKVPFPERIKFIEENHENIMACAKSPLENTWWAEQDSPFCFLAFCFEYAGVQHHGLSYNCSLPLAFDGSCSGIQHFSAMLRDEVGGRAVNLLPSETVQDIYGIVAKKVNEILQADAINGTDNEVVTVTDENTGEISEKVKLGTKALAGQWLAYGVTRSVTKRSVMTLAYGSKEYGFRQQVLEDTIQPAIDSGKGLMFTQPNQAAGYMAKLIWESVSVTVVAAVEAMNWLKSAAKLLAAEVKDKKTGEILRKRCAVHWVTPDGFPVWQEYKKPIQTRLNLMFLGQFRLQPTINTNKDSEIDAHKQESGIAPNFVHSQDGSHLRKTVVWAHEKYGIESFALIHDSFGTIPADAANLFKAVRETMVDTYESCDVLADFYDQFADQLHESQLDKMPALPAKGNLNLRDILESDFAFA | little noise; also recorded: noise was low |
